The experiment deals with L1210 leukemia ip in BDF1 mice, survival T/C. Briefly: NCI In Vivo Anticancer Drug Screen. Data for tumor model L1210 Leukemia (intraperitoneal) in B6D2F1 (BDF1) mice. The following applies: T/C endpoint: mean survival time, higher T/C = longer survival.
Setting [1] is: dose: 100.0 mg/kg/injection, schedule: Q01DX001 (ip), vehicle: carboxymethylcellulose (CMC).
Setting [2] is: dose: 400.0 mg/kg/injection, schedule: Q04DX003 (ip), vehicle: Klucel (hydroxypropylcellulose) (HPC).
The mark [3] stands for this setting: dose: 200.0 mg/kg/injection, schedule: Q04DX003 (ip), vehicle: saline.
[4] abbreviates: dose: 400.0 mg/kg/injection, schedule: Q04DX003 (ip), vehicle: saline.
[5] abbreviates: dose: 100.0 mg/kg/injection, schedule: Q01DX009 (ip), vehicle: saline with Tween-80.
Setting [6] is: dose: 200.0 mg/kg/injection, schedule: Q01DX009 (ip), vehicle: saline with Tween-80.
Setting [7] is: dose: 400.0 mg/kg/injection, schedule: Q04DX002 (ip), vehicle: saline.
[8] abbreviates: dose: 50.0 mg/kg/injection, schedule: Q04DX002 (ip), vehicle: other.
Where [9] appears, read: dose: 100.0 mg/kg/injection, schedule: Q04DX002 (ip), vehicle: other.
Where [10] appears, read: dose: 200.0 mg/kg/injection, schedule: Q04DX002 (ip), vehicle: other.
Where [11] appears, read: dose: 400.0 mg/kg/injection, schedule: Q04DX002 (ip), vehicle: other.
[12] abbreviates: dose: 400.0 mg/kg/injection, schedule: Q01DX009 (ip), vehicle: saline with Tween-80.

The structures appear in SMILES notation. The list does not hold the whole screen: it is rich in T/C values a quarter to a half above the control, in often repeated tests (any T/C) and in doses without a T/C. Other doses and runs of a compound stand elsewhere. T/C is the treated group as % of the vehicle group. Some doses have a count of surviving animals in place of a T/C: the source holds a T/C of zero for them, seemingly a mark for toxic or unscored doses. Some survivor counts are full or nearly so, which does not show that the dose was tolerated: the source hardly ever lists a survival T/C far under the control, and the zero likely stands for such cases as well. Counts of survivors are from the toxicity check (mostly the fifth day) where no day follows; animals may have died later. Schedules are NCI's codes, taken here to give the interval after Q, in days (D) or hours (H), and the number of doses after X. Some entries hold several experiments; their values stand side by side, smallest first. For survival time, this PubChem deposit counts one and a half times the control or more as active, and values a quarter to a half above the control carry no call in these data; other NCI protocols may use other cut-offs. Marks such as (2×) give the number of equal values in this list.

For `O=c1cc(CO)occ1O.O=c1cc(CO)occ1O.[O]=[V]`, the survivor count (dose: 32.0 mg/kg/injection, schedule: Q01DX015 (ip), vehicle: carboxymethylcellulose (CMC)) is 3 of 6; the survivor count (dose: 50.0 mg/kg/injection, schedule: Q01DX001 (ip), vehicle: carboxymethylcellulose (CMC)) is given as 2 of 4; the survivor count (dose: 50.0 mg/kg/injection, schedule: Q01DX009 (ip), vehicle: saline) is given as 1 of 6; the survivor count (dose: 75.0 mg/kg/injection, schedule: Q01DX001 (ip), vehicle: saline) is reported as 3 of 6; the survivor count (dose: 75.0 mg/kg/injection, schedule: Q04DX003 (ip), vehicle: saline) is 1 of 6; the survivor count under setting [1] is given as 1 of 4. Moreover, the survivor count is reported as 0 of 6 (dose: 115.0 mg/kg/injection, schedule: Q01DX001 (ip), vehicle: saline); 1 of 6 (dose: 115.0 mg/kg/injection, schedule: Q04DX003 (ip), vehicle: saline); 0 of 6 (dose: 170.0 mg/kg/injection, schedule: Q01DX001 (ip), vehicle: saline); 0 of 6 (dose: 170.0 mg/kg/injection, schedule: Q04DX003 (ip), vehicle: saline); 0 of 4 (dose: 200.0 mg/kg/injection, schedule: Q01DX001 (ip), vehicle: carboxymethylcellulose (CMC)); 0 of 4 (dose: 400.0 mg/kg/injection, schedule: Q01DX001 (ip), vehicle: carboxymethylcellulose (CMC)).

`Cc1n(-c2ccccc2)c2c([n+]1Cc1ccc([N+](=O)[O-])cc1)C(=O)c1ccccc1C2=O`: the survivor count is, setting by setting: (dose: 80.0 mg/kg/injection, schedule: Q01DX001 (ip), vehicle: other) 1 of 4; (dose: 100.0 mg/kg/injection, schedule: Q01DX001 (ip), vehicle: other) 0 of 4; (dose: 200.0 mg/kg/injection, schedule: Q01DX001 (ip), vehicle: other) 0 of 4; (dose: 400.0 mg/kg/injection, schedule: Q01DX001 (ip), vehicle: other) 0 of 4.

As for `C=CCN(CC=C)c1nc(OC)nc(OC)n1`, the survivor count reads like this: (dose: 200.0 mg/kg/injection, schedule: Q04DX003 (ip), vehicle: saline with Tween-80) 0 of 6; (dose: 400.0 mg/kg/injection, schedule: Q04DX003 (ip), vehicle: saline with Tween-80) 0 of 6.

Take `CC1(C(N)=O)CC2C=CC1C2` (stereo not drawn): under setting [1], the T/C was 148 % of control.

`O=[N+]([O-])c1ccc(Cl)c(OCCCCOc2ccc(S(=O)(=O)F)cc2)c1`: under setting [2], the survivor count was 6 of 6.

Consider `CCC(C)C(CCCN1CCOCC1)(CNC(=O)CN(CC)CC)c1cccc2ccccc12` (stereo not drawn), for which the survivor count under setting [3] is 4 of 6 and the survivor count under setting [4] was 1 of 6.

Take `Cc1cc(C)c(NC(=O)c2cc(C(=O)O)c(C(=O)Nc3c(C)cc(C)cc3C)cc2C(=O)O)c(C)c1`: the T/C by setting is: under setting [5], 93, 94, 100 % of control; under setting [6], 87, 91 (2×), 107 % of control. Under setting [5], the survivor count was 3 of 3.

With `CN(C)CC(C)(C)C(=O)c1ccc(F)cc1`, the survivor count by setting is: (dose: 100.0 mg/kg/injection, schedule: Q04DX002 (ip), vehicle: saline) 0 of 3 and 3 of 3; (dose: 200.0 mg/kg/injection, schedule: Q04DX002 (ip), vehicle: saline) 0 of 3 and 3 of 3; under setting [7], 0 of 3 and 3 of 3.

In the case of `Cc1cc([N+](=O)[O-])cc(C)c1OC(=O)c1ccc(N=C(N)N)cc1`, the survivor count reads like this: (dose: 12.5 mg/kg/injection, schedule: Q01DX009 (ip), vehicle: saline) 6 of 6; (dose: 25.0 mg/kg/injection, schedule: Q01DX009 (ip), vehicle: saline) 3 of 6; (dose: 100.0 mg/kg/injection, schedule: Q01DX009 (ip), vehicle: saline) 0 of 6; under setting [3], 3 of 6; under setting [4], 2 of 6.

Consider `Cc1c(CCO)sc[n+]1Cc1ccccc1`, for which, under setting [7], the survivor count is 1 of 3.

As for `CCCCC(=O)N/N=C(\C)[C@]1(O)Cc2c(O)c3c(c(O)c2[C@@H](OC2CC(N)C(O)C(C)O2)C1)C(=O)c1c(OC)cccc1C3=O` (stereo partly drawn), the survivor count by setting is: (dose: 100.0 mg/kg/injection, schedule: Q04DX003 (ip), vehicle: saline) 6 of 6; under setting [3], 4 of 6; under setting [4], 0 of 6.

Consider `NC1CCC(Cl)CC1` (stereo not drawn), for which, under setting [4], the survivor count is recorded as 6 of 6.

For `N#Cc1nc2c(nc1C#N)-c1ccccc1/C2=C1/C(=O)Cc2ccccc21`, the T/C under setting [8] is reported as 90, 98, 101 % of control; the T/C under setting [9] was 86, 87, 89, 93, 99, 101 % of control; the T/C under setting [10] is 89, 93, 101 (2×), 107 % of control; the T/C under setting [11] was 86 and 92 % of control. In addition, the survivor count was 3 of 3 under setting [8]; 3 of 3 and 6 of 6 under setting [9]; 3 of 3 under setting [10]; 0 of 3 and 4 of 6 under setting [11].

On to `Cc1ccc(CN=C=S)cc1`, for which the survivor count by setting is: (dose: 25.0 mg/kg/injection, schedule: Q01DX009 (ip), vehicle: saline with Tween-80) 1 of 3; (dose: 50.0 mg/kg/injection, schedule: Q01DX009 (ip), vehicle: saline with Tween-80) 2 of 6; under setting [5], 0 of 6; under setting [6], 0 of 6; under setting [12], 0 of 6.

For the compound `Cc1ccc(NC(N)=S)cc1C`, the survivor count is, setting by setting: under setting [6], 0 of 6; under setting [12], 0 of 6.

Consider `CSc1ncc(C(=O)O)c(=O)[nH]1`, for which the survivor count (dose: 200.0 mg/kg/injection, schedule: Q01DX009 (ip), vehicle: Klucel (hydroxypropylcellulose) (HPC)) is given as 6 of 6.

With `CC1CC(C)(C)N=C(CCC[N+](=O)[O-])O1` (stereo not drawn), the survivor count (dose: 100.0 mg/kg/injection, schedule: Q04DX003 (ip), vehicle: other) was 6 of 6.

Take `CC(NC(=O)OCc1ccccc1)C(=O)Oc1cc(Cl)c(Cl)cc1Cl` (stereo not drawn): the survivor count is, setting by setting: (dose: 100.0 mg/kg/injection, schedule: Q04DX003 (ip), vehicle: Klucel (hydroxypropylcellulose) (HPC)) 6 of 6; under setting [2], 6 of 6; under setting [4], 6 of 6.

For the origin of these results see PubChem BioAssay AID248 (DTP/NCI, 2004).
